Some of the results follow.
Key:
Assay in all cases: log2 fold change, soluble protein after heating vs DMSO (PISA); higher = thermal stabilisation; K562 lysate, 10 uM; active = over 0.2 and 3.5 SD of the protein, either way, in both replicates (recomputed)
[1] = compound: CN1CC[C@H](c2c(O)cc(O)c3c(=O)cc(-c4ccccc4Cl)oc23)[C@H](O)C1 [alvocidib]
Method in brief: (§1)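 Dounce homogenisation of K562 pellets in PBS pH 7.4 with 1 mM MgCl2 produced a crude extract, used at 1 mg/mL protein. Exposure to 10 μM compound lasted 30 min, and aliquots were then heated for 3 min across 48°C-58°C, pooled and brought to 0.5% NP-40 at 4°C. The supernatant after 21,000xg for 90 min was quantified by TMTpro 16plex LC-MS/MS with channel sums equalised. Duplicate values are given as log-two fold change in thermal stability relative to solvent controls.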

By UniProt entry, the sequences of proteins in these tests, tags left out. Where a name states a change or a piece, a line headed by the entry shows the natural chain unless it says otherwise.
UniProt Q9NSV4, whole entry, looked up: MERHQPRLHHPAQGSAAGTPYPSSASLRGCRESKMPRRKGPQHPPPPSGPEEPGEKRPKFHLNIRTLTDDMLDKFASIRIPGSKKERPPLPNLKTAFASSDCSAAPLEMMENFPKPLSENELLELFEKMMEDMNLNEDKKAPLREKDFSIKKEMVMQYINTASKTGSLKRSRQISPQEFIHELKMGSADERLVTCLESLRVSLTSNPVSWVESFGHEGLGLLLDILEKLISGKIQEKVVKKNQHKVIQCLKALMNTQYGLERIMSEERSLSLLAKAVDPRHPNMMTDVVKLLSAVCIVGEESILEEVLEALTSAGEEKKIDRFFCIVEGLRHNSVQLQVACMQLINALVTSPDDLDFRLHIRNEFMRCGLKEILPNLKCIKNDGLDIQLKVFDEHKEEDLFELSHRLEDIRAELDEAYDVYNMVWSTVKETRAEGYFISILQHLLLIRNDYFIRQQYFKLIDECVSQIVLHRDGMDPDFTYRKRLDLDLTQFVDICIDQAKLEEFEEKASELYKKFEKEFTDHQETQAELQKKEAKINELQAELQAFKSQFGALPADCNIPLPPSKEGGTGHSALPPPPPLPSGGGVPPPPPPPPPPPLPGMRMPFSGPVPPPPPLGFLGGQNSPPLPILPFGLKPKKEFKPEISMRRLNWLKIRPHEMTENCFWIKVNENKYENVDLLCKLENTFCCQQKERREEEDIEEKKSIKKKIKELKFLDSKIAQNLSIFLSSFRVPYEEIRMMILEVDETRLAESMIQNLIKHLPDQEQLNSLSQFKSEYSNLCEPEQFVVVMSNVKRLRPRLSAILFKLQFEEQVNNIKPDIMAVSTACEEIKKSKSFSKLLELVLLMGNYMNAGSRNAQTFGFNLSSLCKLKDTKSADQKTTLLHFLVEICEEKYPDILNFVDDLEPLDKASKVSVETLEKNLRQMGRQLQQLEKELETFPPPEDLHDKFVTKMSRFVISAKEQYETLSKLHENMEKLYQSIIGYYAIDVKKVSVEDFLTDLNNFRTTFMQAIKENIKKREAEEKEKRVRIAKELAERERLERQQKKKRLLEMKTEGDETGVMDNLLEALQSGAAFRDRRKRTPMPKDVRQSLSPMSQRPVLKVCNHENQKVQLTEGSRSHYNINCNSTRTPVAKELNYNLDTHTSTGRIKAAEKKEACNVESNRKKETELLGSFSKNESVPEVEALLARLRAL
UniProt Q96GE9: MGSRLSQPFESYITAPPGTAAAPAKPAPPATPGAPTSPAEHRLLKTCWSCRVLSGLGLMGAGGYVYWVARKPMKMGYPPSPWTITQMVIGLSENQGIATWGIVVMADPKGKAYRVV
UniProt Q08495: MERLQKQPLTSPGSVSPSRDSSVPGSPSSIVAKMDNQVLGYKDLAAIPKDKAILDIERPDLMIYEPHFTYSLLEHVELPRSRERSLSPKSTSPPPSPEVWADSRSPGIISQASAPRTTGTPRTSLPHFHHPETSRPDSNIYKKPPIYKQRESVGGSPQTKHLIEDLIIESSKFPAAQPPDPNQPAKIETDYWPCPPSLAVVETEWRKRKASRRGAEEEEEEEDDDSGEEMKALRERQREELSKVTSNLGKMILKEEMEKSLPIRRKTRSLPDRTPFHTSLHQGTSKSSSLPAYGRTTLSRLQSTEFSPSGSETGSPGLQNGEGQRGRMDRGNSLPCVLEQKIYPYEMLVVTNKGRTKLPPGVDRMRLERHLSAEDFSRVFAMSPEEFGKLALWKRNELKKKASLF
UniProt Q5T7M9: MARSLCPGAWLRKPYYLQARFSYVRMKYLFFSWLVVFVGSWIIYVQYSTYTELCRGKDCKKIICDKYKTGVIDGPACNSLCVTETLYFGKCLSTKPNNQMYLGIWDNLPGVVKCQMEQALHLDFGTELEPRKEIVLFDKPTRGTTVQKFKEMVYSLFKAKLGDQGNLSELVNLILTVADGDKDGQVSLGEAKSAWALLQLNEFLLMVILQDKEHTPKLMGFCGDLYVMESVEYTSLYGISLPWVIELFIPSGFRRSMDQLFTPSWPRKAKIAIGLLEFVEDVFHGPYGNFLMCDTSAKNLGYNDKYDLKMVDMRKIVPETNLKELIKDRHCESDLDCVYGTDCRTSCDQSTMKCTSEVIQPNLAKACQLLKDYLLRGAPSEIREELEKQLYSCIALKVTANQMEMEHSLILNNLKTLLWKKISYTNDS
UniProt Q07687: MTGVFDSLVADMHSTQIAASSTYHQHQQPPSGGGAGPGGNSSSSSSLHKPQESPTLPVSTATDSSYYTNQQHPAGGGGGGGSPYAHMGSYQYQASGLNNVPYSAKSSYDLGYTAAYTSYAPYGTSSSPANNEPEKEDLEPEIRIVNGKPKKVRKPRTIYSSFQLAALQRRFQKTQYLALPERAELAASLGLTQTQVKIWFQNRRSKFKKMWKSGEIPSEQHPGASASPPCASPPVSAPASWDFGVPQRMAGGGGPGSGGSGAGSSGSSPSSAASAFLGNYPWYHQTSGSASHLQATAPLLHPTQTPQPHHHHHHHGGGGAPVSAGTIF
UniProt Q5JWR5: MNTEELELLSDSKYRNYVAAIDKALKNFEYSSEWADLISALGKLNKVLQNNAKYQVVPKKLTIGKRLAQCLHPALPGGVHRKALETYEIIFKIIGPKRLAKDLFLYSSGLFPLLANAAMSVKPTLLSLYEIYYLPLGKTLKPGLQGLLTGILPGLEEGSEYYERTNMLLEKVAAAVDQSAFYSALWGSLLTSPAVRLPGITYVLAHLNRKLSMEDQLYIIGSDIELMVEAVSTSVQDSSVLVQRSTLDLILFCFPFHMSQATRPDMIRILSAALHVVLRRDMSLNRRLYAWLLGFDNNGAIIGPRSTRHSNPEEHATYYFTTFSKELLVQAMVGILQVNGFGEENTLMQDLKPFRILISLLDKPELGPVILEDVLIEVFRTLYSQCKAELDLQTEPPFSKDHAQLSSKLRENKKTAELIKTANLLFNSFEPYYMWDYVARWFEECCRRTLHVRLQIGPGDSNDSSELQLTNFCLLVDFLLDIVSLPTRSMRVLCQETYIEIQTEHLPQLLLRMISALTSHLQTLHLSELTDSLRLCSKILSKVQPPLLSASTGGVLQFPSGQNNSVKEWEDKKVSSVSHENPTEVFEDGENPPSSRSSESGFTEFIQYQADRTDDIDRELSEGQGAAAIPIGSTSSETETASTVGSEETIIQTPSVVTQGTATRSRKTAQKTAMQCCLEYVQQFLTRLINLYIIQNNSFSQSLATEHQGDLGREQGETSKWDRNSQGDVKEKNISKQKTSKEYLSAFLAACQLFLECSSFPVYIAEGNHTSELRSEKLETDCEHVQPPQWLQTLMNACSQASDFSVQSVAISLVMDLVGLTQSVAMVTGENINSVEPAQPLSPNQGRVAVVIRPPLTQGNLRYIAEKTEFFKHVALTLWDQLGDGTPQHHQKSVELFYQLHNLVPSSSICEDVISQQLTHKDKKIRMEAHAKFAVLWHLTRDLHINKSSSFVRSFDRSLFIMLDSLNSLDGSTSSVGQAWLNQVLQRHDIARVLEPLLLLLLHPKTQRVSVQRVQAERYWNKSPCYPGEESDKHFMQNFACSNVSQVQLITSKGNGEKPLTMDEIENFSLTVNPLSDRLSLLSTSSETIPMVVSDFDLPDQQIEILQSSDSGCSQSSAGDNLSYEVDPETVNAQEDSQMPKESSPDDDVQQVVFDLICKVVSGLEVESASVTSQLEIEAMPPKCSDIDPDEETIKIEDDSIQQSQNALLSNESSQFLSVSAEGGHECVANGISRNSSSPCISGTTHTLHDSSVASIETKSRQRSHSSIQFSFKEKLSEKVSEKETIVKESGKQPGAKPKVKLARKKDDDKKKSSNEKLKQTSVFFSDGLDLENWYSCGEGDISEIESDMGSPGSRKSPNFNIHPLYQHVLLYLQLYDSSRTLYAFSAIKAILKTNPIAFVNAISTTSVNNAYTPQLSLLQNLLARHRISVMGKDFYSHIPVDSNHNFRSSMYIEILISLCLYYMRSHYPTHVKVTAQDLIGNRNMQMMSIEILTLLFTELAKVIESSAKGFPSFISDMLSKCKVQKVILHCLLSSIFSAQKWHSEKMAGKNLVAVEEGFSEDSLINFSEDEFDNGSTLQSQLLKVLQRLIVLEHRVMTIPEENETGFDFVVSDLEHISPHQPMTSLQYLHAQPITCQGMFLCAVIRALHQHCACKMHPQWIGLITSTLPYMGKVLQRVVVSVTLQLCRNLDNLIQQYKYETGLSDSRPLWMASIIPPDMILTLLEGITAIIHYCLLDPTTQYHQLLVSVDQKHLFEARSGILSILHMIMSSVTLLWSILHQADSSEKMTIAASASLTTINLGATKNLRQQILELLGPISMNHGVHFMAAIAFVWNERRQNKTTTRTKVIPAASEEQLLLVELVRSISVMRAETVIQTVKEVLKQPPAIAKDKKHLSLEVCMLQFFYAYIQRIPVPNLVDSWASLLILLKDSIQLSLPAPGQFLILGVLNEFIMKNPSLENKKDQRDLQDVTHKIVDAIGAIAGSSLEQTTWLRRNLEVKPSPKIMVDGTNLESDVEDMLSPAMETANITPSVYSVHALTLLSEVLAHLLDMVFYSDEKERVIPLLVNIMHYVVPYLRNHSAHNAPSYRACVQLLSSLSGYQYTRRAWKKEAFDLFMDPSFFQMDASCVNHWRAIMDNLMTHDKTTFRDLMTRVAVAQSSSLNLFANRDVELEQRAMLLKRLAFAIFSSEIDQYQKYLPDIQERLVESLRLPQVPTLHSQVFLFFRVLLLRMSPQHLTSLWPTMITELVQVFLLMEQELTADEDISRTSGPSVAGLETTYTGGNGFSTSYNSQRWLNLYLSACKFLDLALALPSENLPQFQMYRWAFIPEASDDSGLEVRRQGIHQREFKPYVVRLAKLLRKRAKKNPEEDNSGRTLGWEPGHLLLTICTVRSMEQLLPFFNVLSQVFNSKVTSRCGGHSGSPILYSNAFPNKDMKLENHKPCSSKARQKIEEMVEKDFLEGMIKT
UniProt P26358: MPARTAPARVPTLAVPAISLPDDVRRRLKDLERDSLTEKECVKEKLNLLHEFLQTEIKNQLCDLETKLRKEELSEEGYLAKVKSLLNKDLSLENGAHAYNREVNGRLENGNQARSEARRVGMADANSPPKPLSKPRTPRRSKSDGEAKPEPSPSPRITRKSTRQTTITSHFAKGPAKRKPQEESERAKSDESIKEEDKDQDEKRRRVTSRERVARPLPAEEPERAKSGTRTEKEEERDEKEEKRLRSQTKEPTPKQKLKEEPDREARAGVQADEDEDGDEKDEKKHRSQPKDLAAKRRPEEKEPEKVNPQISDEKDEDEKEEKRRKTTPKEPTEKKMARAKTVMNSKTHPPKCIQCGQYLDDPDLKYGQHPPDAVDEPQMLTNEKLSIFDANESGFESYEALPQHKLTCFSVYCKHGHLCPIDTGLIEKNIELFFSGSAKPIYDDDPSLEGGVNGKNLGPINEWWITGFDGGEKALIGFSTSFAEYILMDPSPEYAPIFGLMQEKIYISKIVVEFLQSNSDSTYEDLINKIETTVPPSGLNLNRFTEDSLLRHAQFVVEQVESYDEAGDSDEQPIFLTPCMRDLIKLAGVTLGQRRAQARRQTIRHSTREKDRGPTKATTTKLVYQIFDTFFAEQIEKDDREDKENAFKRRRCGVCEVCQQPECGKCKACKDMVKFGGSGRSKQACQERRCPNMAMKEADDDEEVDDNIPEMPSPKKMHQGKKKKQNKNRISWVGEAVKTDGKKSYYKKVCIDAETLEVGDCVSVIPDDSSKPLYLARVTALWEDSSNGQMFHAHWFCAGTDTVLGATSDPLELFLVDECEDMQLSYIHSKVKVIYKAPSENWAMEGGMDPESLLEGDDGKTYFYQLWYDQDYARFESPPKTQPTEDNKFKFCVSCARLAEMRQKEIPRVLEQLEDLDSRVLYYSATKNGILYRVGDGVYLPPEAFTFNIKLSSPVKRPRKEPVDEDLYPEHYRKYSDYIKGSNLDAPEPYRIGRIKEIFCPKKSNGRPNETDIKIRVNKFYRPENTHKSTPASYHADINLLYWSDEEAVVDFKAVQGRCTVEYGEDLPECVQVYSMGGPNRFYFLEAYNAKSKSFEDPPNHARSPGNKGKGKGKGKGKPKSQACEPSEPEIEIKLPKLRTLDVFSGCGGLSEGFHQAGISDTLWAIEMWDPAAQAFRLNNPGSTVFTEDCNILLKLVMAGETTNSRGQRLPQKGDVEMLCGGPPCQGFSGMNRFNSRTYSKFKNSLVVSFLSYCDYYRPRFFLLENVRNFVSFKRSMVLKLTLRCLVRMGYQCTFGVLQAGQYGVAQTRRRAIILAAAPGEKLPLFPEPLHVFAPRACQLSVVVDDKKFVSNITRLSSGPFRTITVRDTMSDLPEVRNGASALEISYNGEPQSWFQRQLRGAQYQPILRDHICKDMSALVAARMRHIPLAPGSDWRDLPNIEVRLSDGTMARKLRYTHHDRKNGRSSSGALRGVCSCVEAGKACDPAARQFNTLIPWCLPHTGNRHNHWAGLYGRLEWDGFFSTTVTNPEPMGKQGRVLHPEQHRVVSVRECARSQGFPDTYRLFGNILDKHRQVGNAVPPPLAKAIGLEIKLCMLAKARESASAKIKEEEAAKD

[2] = compound: CN1CCc2c(c3ccccc3n2Cc2ccc(C(=O)NO)cc2)C1 [Tubastatin A]
Method in brief: as §1

[3] = compound: CNC(=O)C1=CC=CC=C1NC2=NC(=NC=C2Cl)NC3=C(C=C(C=C3)N4CCOCC4)OC
Method in brief: as §1

[4] = compound: CNC(=O)c1ccc(Nc2ncc(C(F)(F)F)c(NCc3nccnc3N(C)S(C)(=O)=O)n2)cc1 [defactinib]
Method in brief: as §1

[5] = compound: CNc1nc(-c2ccc3c(N)n[nH]c3c2)cc(N2C[C@@H](C(=O)NC3CCCCC3)CC[C@H]2C)n1
Method in brief: as §1

[6] = compound: COc1cc(Nc2ncc3c(n2)-c2ccc(Cl)cc2C(c2c(F)cccc2OC)=NC3)ccc1C(=O)O [alisertib]
Method in brief: as §1

[7] = compound: COc1cc2nc(-c3cc(F)ccc3O)nc(N[C@@H]3CNC[C@H]3C(C)(C)O)c2cc1OC
Method in brief: as §1

[8] = compound: COc1cc2ncnc(Nc3ccc(F)c(Cl)c3)c2cc1OCCCN1CCOCC1 [gefitinib]
Method in brief: as §1

[9] = compound: COC(=O)N[C@@H](C)CNc1nccc(-c2cn(C(C)C)nc2-c2cc(Cl)cc(NS(C)(=O)=O)c2F)n1 [encorafenib]
Method in brief: as §1

[10] = compound: COC(=O)[C@H](CCSC)NC(=O)C1=C(C=C(C=C1)NC[C@H](CS)N)C2=CC=CC=C2
Method in brief: as §1

Measured: log2 fold change

DNAH5 (UniProt Q8TE73)
inactive: [1] -0.189 | [2] 0.073 | [3] -0.032 | [4] -0.014 | [5] -0.051 | [6] -0.029 | [7] -0.019 | [8] 0.052

DIAPH3 (UniProt Q9NSV4)
inactive: [1] 0.041 | [2] -0.195 | [3] 0.004 | [4] -0.024 | [5] -0.027 | [9] 0.118 | [10] 0.085 | [6] 0.056 | [7] -0.015 | [8] 0.06

DHTKD1 (UniProt Q96HY7)
inactive: [1] 0.028 | [2] 0.072 | [3] 0.109 | [6] -0.198 | [7] -0.022 | [8] 0.007

DMAC2 isoform 4 (UniProt Q9NW81)
inactive: [1] 0.079 | [2] 0.311 | [3] -0.003 | [4] 0 | [9] -0.021 | [10] -0.008 | [6] -0.034 | [7] 0.082 | [8] 0.055

DLD (UniProt P09622)
inactive: [1] -0.024 | [2] 0.041 | [3] 0.03 | [4] -0.02 | [5] 0.046 | [9] -0.014 | [10] -0.13 | [6] 0 | [7] 0.008 | [8] -0.055

DPAGT1 (UniProt Q9H3H5)
inactive: [1] -0.075 | [2] -0.048 | [3] 0.077 | [6] -0.021 | [7] 0.045 | [8] 0.045

DHRS4L1 (UniProt P0CG22)
inactive: [1] 0.08 | [2] -0.021 | [3] 0.008 | [4] -0.035 | [5] 0.223 | [9] -0.027 | [10] -0.02 | [7] 0.029

DNAAF2 (UniProt Q9NVR5)
inactive: [1] -0.018 | [2] 0.033 | [3] 0.027 | [4] -0.044 | [5] 0.042 | [9] 0.063 | [10] -0.019 | [6] -0.018 | [7] 0.004 | [8] 0.008

Quoted from the entries so far (2 entries):
DPAGT1 (UniProt Q9H3H5)
inactive: [1] -0.075 | [2] -0.048 | [3] 0.077 | [6] -0.021 | [7] 0.045 | [8] 0.045

DHRS4L1 (UniProt P0CG22)
inactive: [1] 0.08 | [2] -0.021 | [3] 0.008 | [4] -0.035 | [5] 0.223 | [9] -0.027 | [10] -0.02 | [7] 0.029

Remaining list, next part.

DNA2 (UniProt P51530)
inactive: [1] -0.116 | [2] -0.15 | [3] -0.009 | [4] -0.039 | [5] -0.035 | [9] 0.123 | [10] -0.098 | [6] -0.007 | [8] 0.036

DGKA (UniProt P23743)
inactive: [1] -0.016 | [2] -0.039 | [4] 0.078 | [5] -0.034 | [9] 0.007 | [10] 0.013 | [6] -0.043 | [7] -0.042 | [8] 0.025

DHX16 (UniProt O60231)
inactive: [1] 0.014 | [2] 0.008 | [3] 0.002 | [4] 0.009 | [5] -0.013 | [9] 0.017 | [10] -0.032 | [6] 0.015 | [7] -0.039 | [8] -0.002

DNAJC8 (UniProt O75937)
inactive: [1] 0.023 | [2] 0.066 | [3] -0.014 | [4] -0.009 | [5] -0.031 | [9] -0.017 | [10] -0.002 | [6] -0.01 | [7] -0.031 | [8] 0.038

DMAC1 (UniProt Q96GE9)
inactive: [1] 0.038 | [2] 0.094 | [4] 0.056

DHRS13 (UniProt Q6UX07)
inactive: [2] -0.087 | [3] -0.083 | [5] 0.004 | [6] -0.211 | [7] -0.138 | [8] 0.036

DOCK5 (UniProt Q9H7D0)
inactive: [7] 0.11

DNPEP (UniProt C9JBE1)
inactive: [1] -0.051 | [4] -0.091 | [9] -0.001 | [10] 0.04 | [6] 0.059 | [7] 0.062 | [8] 0.383

DHRSX (UniProt Q8N5I4)
inactive: [2] -0.062 | [3] -0.114 | [4] 0.034 | [5] 0.053

DNMT3A (UniProt Q9Y6K1)
inactive: [1] -0.106 | [3] -0.032 | [7] 0.416

DMTN isoform 2 (UniProt Q08495)
inactive: [1] -0.194 | [3] -0.043 | [4] 0.069 | [5] 0.012 | [9] -0.098 | [10] 0.008 | [7] 0.157

DMBT1 isoform 6 (UniProt Q9UGM3)
inactive: [1] -0.154 | [4] -0.043 | [9] -0.229 | [10] 0.629 | [6] -0.17 | [8] 0.023

DNAH12 (UniProt Q6ZR08)
inactive: [1] 0.016 | [4] -0.134 | [5] -0.128

DLGAP5 isoform 3 (UniProt Q15398)
inactive: [1] 0 | [5] -0.051

DNPEP (UniProt B9ZVU2)
inactive: [2] 0.053 | [3] 0.016 | [5] 0.042 | [9] 0.026 | [10] -0.027 | [6] -0.009 | [7] -0.021 | [8] -0.052

DNAJB9 (UniProt Q9UBS3)
inactive: [2] -0.113 | [3] 0.012 | [5] -0.149 | [7] 0.03

DLG1 isoform 3 (UniProt Q12959)
inactive: [2] -0.015

DNTTIP2 (UniProt Q5QJE6)
inactive: [1] 0.01 | [3] -0.057 | [4] -0.231 | [5] 0.117 | [9] 0.01 | [10] -0.126 | [6] -0.19 | [7] 0.115 | [8] 0.187

DNHD1 (UniProt Q96M86)
inactive: [2] 0.181 | [3] -0.047 | [4] 0.047 | [7] 0.036

DNAJC19, A0A2R8Y839
inactive: [6] 0.038 | [8] 0.032

DIPK1A (UniProt Q5T7M9)
inactive: [9] -0.008 | [10] -0.078

Reprinted at random: 3 entries already listed, in no set order.
DNAJB9 (UniProt Q9UBS3)
inactive: [2] -0.113 | [3] 0.012 | [5] -0.149 | [7] 0.03

DIPK1A (UniProt Q5T7M9)
inactive: [9] -0.008 | [10] -0.078

DLG1 isoform 3 (UniProt Q12959)
inactive: [2] -0.015

Next part

DNAJC14 (UniProt Q6Y2X3)
inactive: [2] 0.014 | [5] 0.095 | [9] 0.111 | [10] -0.237

DLG5 (UniProt Q8TDM6)
inactive: [4] -0.039 | [5] 0.07

DOCK11, A0A0J9YW64
inactive: [1] -0.005 | [6] 0.078 | [8] 0.079

DHPS (UniProt M0R1T2)
inactive: [1] -0.097 | [6] 0.047 | [8] 0.175

DGCR6L (UniProt Q9BY27)
inactive: [1] 0.066 | [2] -0.089 | [6] -0.087 | [8] 0.171

DOT1L isoform 1 (UniProt Q8TEK3)
inactive: [3] 0.253 | [4] -0.02 | [5] -0.051 | [9] -0.105 | [10] -0.12

DLX2 (UniProt Q07687)
inactive: [2] -0.294 | [3] 0.235

DOP1A (UniProt Q5JWR5)
inactive: [5] 0.235 | [9] -0.036 | [10] -0.039 | [6] -0.023 | [8] 0.036

DNTTIP1 (UniProt Q9H147)
inactive: [1] 0.14 | [3] 0.022 | [4] 0.007 | [5] -0.184 | [9] 0.059 | [10] 0.011 | [7] 0.08

DOP1B (UniProt Q9Y3R5)
inactive: [1] 0 | [4] -0.042 | [7] -0.054

DNMT1 (UniProt P26358)
inactive: [1] -0.07 | [2] -0.03 | [6] -0.112 | [8] 0.117

DNASE1L1 (UniProt P49184)
inactive: [1] -0.109 | [2] 0.06 | [6] 0.171 | [7] -0.072 | [8] 0.037

DNAJA3 isoform 2 (UniProt Q96EY1)
inactive: [2] -0.065 | [3] -0.037 | [4] -0.127 | [5] 0.085 | [9] -0.066 | [10] 0.079

DNMT3B (UniProt Q9UBC3)
inactive: [2] -0.299 | [4] 0.096 | [9] 0.243 | [10] -0.174 | [6] -0.28 | [8] 0.061

DHX33 (UniProt Q9H6R0)
inactive: [1] -0.02 | [5] 0.023 | [7] -0.019

DNAJB2 (UniProt P25686)
inactive: [1] 0.006 | [3] -0.039 | [4] -0.119 | [5] 0.025 | [9] 0.051 | [10] -0.009 | [6] 0.113 | [8] -0.263

DLC1 (UniProt Q96QB1)
inactive: [2] -0.082 | [9] -0.095 | [10] 0.052

DOCK6 (UniProt Q96HP0)
inactive: [3] -0.027 | [5] 0.154
